Experimental findings from the supplement of paper PMC4604168 (melanoma cell lines) are described below.

Some of the results follow. Single values are uncertain, as repeats are few or missing.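 Cells were imaged in 1,536-well plates, and nuclei stained with an antibody against cleaved PARP were counted against all DNA-stained nuclei to give the apoptosis fraction. Screening doses were chosen to leave most cells alive, and resting and induced cleaved-PARP levels differ strongly between cell lines.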

The subject of this test is RVH-421. Briefly: cleaved PARP positive nuclei fraction relative to DMSO control; melanoma cells; higher = more apoptosis. The following applies: library dose: low library concentration; 72 h.
On to `Cc1cn(-c2cc(NC(=O)c3ccc(C)c(Nc4nccc(-c5cccnc5)n4)c3)cc(C(F)(F)F)c2)cn1` [nilotinib] + NC(=O)c1ccc(N(C(N)=O)c2c(F)cccc2F)nc1-c1ccc(F)cc1F [VX702] (first compound 0.2 µM, partner dose 0.4 µM), for which the “cleaved PARP positive nuclei fraction” value turned out to be 30.6%.
As to `CC[C@]1(O)C[C@H]2CN(CCc3c([nH]c4ccccc34)[C@@](C(=O)OC)(c3cc4c(cc3OC)N(C=O)[C@H]3[C@@](O)(C(=O)OC)[C@H](OC(C)=O)[C@]5(CC)C=CCN6CC[C@]43[C@@H]65)C2)C1` [vincristine] + C[C@@H](N)c1ccc(C(=O)Nc2ccnc3[nH]ccc23)cc1 [RKI983] (first compound 0.0001 µM, partner dose 0.4 µM), the “cleaved PARP positive nuclei fraction” value worked out at 500%.
Regarding `Cc1cn(-c2cc(NC(=O)c3ccc(C)c(Nc4nccc(-c5cccnc5)n4)c3)cc(C(F)(F)F)c2)cn1` [nilotinib] + CC(C)C[C@H](NC(=O)[C@H](Cc1ccccc1)NC(=O)c1cnccn1)B(O)O [Bortezomib] (first compound 0.2 µM, partner dose 0.001 µM), the “cleaved PARP positive nuclei fraction” value turned out to be 130%.
As for `O=C(Nc1cc(C(F)(F)F)cc(C(F)(F)F)c1)c1cc(Cl)ccc1O` + CC(=O)c1c(C)c2cnc(Nc3ccc(N4CCNCC4)cn3)nc2n(C2CCCC2)c1=O [palbociclib] (first compound 0.016 µM, partner dose 0.04 µM), the “cleaved PARP positive nuclei fraction” value turned out to be 60.9%.
As to `O=C(Nc1cc(C(F)(F)F)cc(C(F)(F)F)c1)c1cc(Cl)ccc1O` + OCc1c[nH]c2ccccc12 [Indole-3-carbinol] (first compound 0.016 µM, partner dose 0.8 µM), the “cleaved PARP positive nuclei fraction” value was determined as 74.3%.
In the case of `COc1cc([C@@H]2c3cc4c(cc3[C@@H](O[C@@H]3O[C@@H]5CO[C@@H](C)O[C@H]5[C@H](O)[C@H]3O)[C@H]3COC(=O)[C@H]23)OCO4)cc(OC)c1O` [etoposide] + CS(=O)(=O)CCNCc1ccc(-c2ccc3ncnc(Nc4ccc(OCc5cccc(F)c5)c(Cl)c4)c3c2)o1 [lapatinib] (first compound 0.02 µM, partner dose 0.8 µM), the “cleaved PARP positive nuclei fraction” value stood at 73.9%.
On to `CCCCCCCCCCCCCCCCCCOP(=O)([O-])OC1CC[N+](C)(C)CC1` [Perifosine] + NC1(c2ccc(-c3nc4ccn5c(=O)[nH]nc5c4cc3-c3ccccc3)cc2)CCC1 [MK2206] (first compound 0.4 µM, partner dose 0.4 µM), for which the “cleaved PARP positive nuclei fraction” value was 30.1%.
For `N#CC[C@H](C1CCCC1)n1cc(-c2ncnc3[nH]ccc23)cn1` [ruxolitinib] + COc1ccc(Cl)c(Nc2nc3ccccc3nc2NS(=O)(=O)c2cccc(NC(=O)C(C)(C)N)c2)c1 [XL147] (first compound 1 µM, partner dose 0.8 µM), the “cleaved PARP positive nuclei fraction” value is 30.1%.
Consider `O=C(Nc1cc(C(F)(F)F)cc(C(F)(F)F)c1)c1cc(Cl)ccc1O` + COc1ccc(C2=N[C@@H](c3ccc(Cl)cc3)[C@@H](c3ccc(Cl)cc3)N2C(=O)N2CCNC(=O)C2)c(OC(C)C)c1 [Nutlin-3] (first compound 0.016 µM, partner dose 0.1 µM), for which the “cleaved PARP positive nuclei fraction” value was found to be 125%.
For `Cc1cc(Nc2cc(N3CCN(C)CC3)nc(Sc3ccc(NC(=O)C4CC4)cc3)n2)n[nH]1` [Tozasertib] + CC[C@]1(O)C[C@H]2CN(CCc3c([nH]c4ccccc34)[C@@](C(=O)OC)(c3cc4c(cc3OC)N(C=O)[C@H]3[C@@](O)(C(=O)OC)[C@H](OC(C)=O)[C@]5(CC)C=CCN6CC[C@]43[C@@H]65)C2)C1 [vincristine] (first compound 0.006 µM, partner dose 0.0001 µM), the “cleaved PARP positive nuclei fraction” value was 127%.
Take `CC[C@]1(O)C[C@H]2CN(CCc3c([nH]c4ccccc34)[C@@](C(=O)OC)(c3cc4c(cc3OC)N(C=O)[C@H]3[C@@](O)(C(=O)OC)[C@H](OC(C)=O)[C@]5(CC)C=CCN6CC[C@]43[C@@H]65)C2)C1` [vincristine] + COc1ccc(Cl)c(Nc2nc3ccccc3nc2NS(=O)(=O)c2cccc(NC(=O)C(C)(C)N)c2)c1 [XL147] (first compound 0.0001 µM, partner dose 0.8 µM): the “cleaved PARP positive nuclei fraction” value was found to be 199%.
In the case of `Cc1cn(-c2cc(NC(=O)c3ccc(C)c(Nc4nccc(-c5cccnc5)n4)c3)cc(C(F)(F)F)c2)cn1` [nilotinib] + COc1ccc(Cl)c(Nc2nc3ccccc3nc2NS(=O)(=O)c2cccc(NC(=O)C(C)(C)N)c2)c1 [XL147] (first compound 0.2 µM, partner dose 0.8 µM), the “cleaved PARP positive nuclei fraction” value was 130%.
As for `Cc1cc(Nc2cc(N3CCN(C)CC3)nc(Sc3ccc(NC(=O)C4CC4)cc3)n2)n[nH]1` [Tozasertib] + Nc1nc(F)nc2c1ncn2[C@@H]1O[C@H](CO)[C@@H](O)[C@@H]1O [fludarabine] (first compound 0.006 µM, partner dose 0.2 µM), the “cleaved PARP positive nuclei fraction” value amounted to 93.9%.
Regarding `O=C(/C=C/c1cccnc1)NCCCCC1CCN(C(=O)c2ccccc2)CC1` + CCCS(=O)(=O)Nc1ccc(F)c(C(=O)c2c[nH]c3ncc(Cl)cc23)c1F [PLX4720] (first compound 0.01 µM, partner dose 0.08 µM), the “cleaved PARP positive nuclei fraction” value is 169%.
With `O=C(/C=C/c1cccnc1)NCCCCC1CCN(C(=O)c2ccccc2)CC1` + CC(=O)c1c(C)c2cnc(Nc3ccc(N4CCNCC4)cn3)nc2n(C2CCCC2)c1=O [palbociclib] (first compound 0.01 µM, partner dose 0.04 µM), the “cleaved PARP positive nuclei fraction” value worked out at 39.5%.
For the compound `CCCCCCCCCCCCCCCCCCOP(=O)([O-])OC1CC[N+](C)(C)CC1` [Perifosine] + CCCCCCCCc1ccc(CCC(N)(CO)CO)cc1 [fingolimod] (first compound 0.4 µM, partner dose 2 µM), the “cleaved PARP positive nuclei fraction” value was found to be 49.8%.
In the case of `CC[C@]1(O)C[C@H]2CN(CCc3c([nH]c4ccccc34)[C@@](C(=O)OC)(c3cc4c(cc3OC)N(C=O)[C@H]3[C@@](O)(C(=O)OC)[C@H](OC(C)=O)[C@]5(CC)C=CCN6CC[C@]43[C@@H]65)C2)C1` [vincristine] + Nc1ncn([C@H]2C[C@H](O)[C@@H](CO)O2)c(=O)n1 [decitabine] (first compound 0.0001 µM, partner dose 0.1 µM), the “cleaved PARP positive nuclei fraction” value is 135%.
Take `O=c1[nH]nc(Sc2ncc([N+](=O)[O-])s2)n1-c1ccc2c(c1)OCCO2` + CC1(C)CCC(c2ccc(Cl)cc2)=C(CN2CCN(c3ccc(C(=O)NS(=O)(=O)c4ccc(N[C@H](CCN5CCOCC5)CSc5ccccc5)c(S(=O)(=O)C(F)(F)F)c4)cc3)CC2)C1 [ABT263] (first compound 0.2 µM, partner dose 0.4 µM): the “cleaved PARP positive nuclei fraction” value turned out to be 219%.
As to `O=c1[nH]nc(Sc2ncc([N+](=O)[O-])s2)n1-c1ccc2c(c1)OCCO2` + C=C(c1ccc(C(=O)O)cc1)c1cc2c(cc1C)C(C)(C)CCC2(C)C [Bexarotene] (first compound 0.2 µM, partner dose 2 µM), the “cleaved PARP positive nuclei fraction” value was 216%.
Regarding `CC[C@]1(O)C[C@H]2CN(CCc3c([nH]c4ccccc34)[C@@](C(=O)OC)(c3cc4c(cc3OC)N(C=O)[C@H]3[C@@](O)(C(=O)OC)[C@H](OC(C)=O)[C@]5(CC)C=CCN6CC[C@]43[C@@H]65)C2)C1` [vincristine] + COc1ccc(C2=N[C@@H](c3ccc(Cl)cc3)[C@@H](c3ccc(Cl)cc3)N2C(=O)N2CCNC(=O)C2)c(OC(C)C)c1 [Nutlin-3] (first compound 0.0001 µM, partner dose 0.1 µM), the “cleaved PARP positive nuclei fraction” value amounted to 133%.
Regarding `COc1cc([C@@H]2c3cc4c(cc3[C@@H](O[C@@H]3O[C@@H]5CO[C@@H](C)O[C@H]5[C@H](O)[C@H]3O)[C@H]3COC(=O)[C@H]23)OCO4)cc(OC)c1O` [etoposide] + C[C@@H](Oc1cc(-c2cnn(C3CCNCC3)c2)cnc1N)c1c(Cl)ccc(F)c1Cl [Crizotinib] (first compound 0.02 µM, partner dose 0.2 µM), the “cleaved PARP positive nuclei fraction” value was determined as 120%.
For `CC[C@]1(O)C[C@H]2CN(CCc3c([nH]c4ccccc34)[C@@](C(=O)OC)(c3cc4c(cc3OC)N(C=O)[C@H]3[C@@](O)(C(=O)OC)[C@H](OC(C)=O)[C@]5(CC)C=CCN6CC[C@]43[C@@H]65)C2)C1` [vincristine] + OCc1c[nH]c2ccccc12 [Indole-3-carbinol] (first compound 0.0001 µM, partner dose 0.8 µM), the “cleaved PARP positive nuclei fraction” value was 127%.
Regarding `O=c1[nH]nc(Sc2ncc([N+](=O)[O-])s2)n1-c1ccc2c(c1)OCCO2` + Cn1cnc2c(F)c(Nc3ccc(Br)cc3Cl)c(C(=O)NOCCO)cc21 [selumetinib] (first compound 0.2 µM, partner dose 0.015 µM), the “cleaved PARP positive nuclei fraction” value came out at 106%.
Regarding `CC[C@]1(O)C[C@H]2CN(CCc3c([nH]c4ccccc34)[C@@](C(=O)OC)(c3cc4c(cc3OC)N(C=O)[C@H]3[C@@](O)(C(=O)OC)[C@H](OC(C)=O)[C@]5(CC)C=CCN6CC[C@]43[C@@H]65)C2)C1` [vincristine] + CS(=O)(=O)c1ccc(C(=O)Nc2ccc(Cl)c(-c3ccccn3)c2)c(Cl)c1 [vismodegib] (first compound 0.0001 µM, partner dose 1 µM), the “cleaved PARP positive nuclei fraction” value worked out at 112%.
With `O=c1[nH]nc(Sc2ncc([N+](=O)[O-])s2)n1-c1ccc2c(c1)OCCO2` + Nc1ccn([C@@H]2O[C@H](CO)[C@@H](O)C2(F)F)c(=O)n1 [gemcitabine] (first compound 0.2 µM, partner dose 0.0004 µM) the figure was 109%.
`CCCCCCCCCCCCCCCCCCOP(=O)([O-])OC1CC[N+](C)(C)CC1` [Perifosine] + Cc1cc(Nc2cc(N3CCN(C)CC3)nc(/C=C/c3ccccc3)n2)n[nH]1 [ENMD2076] (first compound 0.4 µM, partner dose 0.04 µM): the “cleaved PARP positive nuclei fraction” value turned out to be 388%.
